# Data as given in article PMC7192621.
# Key:
# Myc [1] = molecular target: T1, Myc (UniProt Q9W4S7); experiment: EMSA; settings: 1-7 ug nucleoprotein, dose-dependent, impaired by anti-Myc antibody; EMSA/Gel-Shift Kit (Beyotime), 10 uL, 100 nM probe, 1-7 ug S2 nucleoproteins; 5% PAGE in TBE (45 mM Tris borate, 1 mM EDTA, pH 8.3); binding buffer; protein in a lysate after overexpression; residues 1-717
# T1 sequence (looked up): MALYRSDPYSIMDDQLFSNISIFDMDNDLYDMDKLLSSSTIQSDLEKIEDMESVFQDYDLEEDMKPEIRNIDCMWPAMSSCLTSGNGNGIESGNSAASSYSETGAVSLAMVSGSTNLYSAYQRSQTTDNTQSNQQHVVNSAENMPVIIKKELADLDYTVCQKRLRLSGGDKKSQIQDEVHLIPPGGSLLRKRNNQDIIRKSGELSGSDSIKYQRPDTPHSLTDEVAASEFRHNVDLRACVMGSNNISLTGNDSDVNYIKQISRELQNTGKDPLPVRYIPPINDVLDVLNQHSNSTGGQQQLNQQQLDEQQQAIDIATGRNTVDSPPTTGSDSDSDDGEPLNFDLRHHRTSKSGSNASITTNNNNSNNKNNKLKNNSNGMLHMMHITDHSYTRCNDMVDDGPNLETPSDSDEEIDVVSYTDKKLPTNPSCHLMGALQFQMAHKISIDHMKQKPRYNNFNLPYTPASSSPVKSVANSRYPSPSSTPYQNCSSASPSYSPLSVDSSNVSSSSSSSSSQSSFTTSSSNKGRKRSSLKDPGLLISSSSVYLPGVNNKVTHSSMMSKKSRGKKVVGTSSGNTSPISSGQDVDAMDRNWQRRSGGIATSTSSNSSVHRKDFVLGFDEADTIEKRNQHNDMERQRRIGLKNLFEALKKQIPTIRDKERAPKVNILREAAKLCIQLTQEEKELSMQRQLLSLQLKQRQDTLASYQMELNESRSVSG
# Myc [2] = molecular target: T1, Myc; experiment: competition with a labelled probe; settings: unlabeled probe, 1-50-fold molar excess, 7 ug nucleoprotein; EMSA/Gel-Shift Kit (Beyotime), 10 uL, 100 nM probe, 1-7 ug S2 nucleoproteins; 5% PAGE in TBE (45 mM Tris borate, 1 mM EDTA, pH 8.3); binding buffer; protein in a lysate after overexpression; residues 1-717
Sequence,binding result (Myc [1]),binding result (Myc [2])
CAGAAAAAGGCGCCAAAACCGAGCAAAGCACGCAGCTGTAAACATTCGCAA (double strand) [MCM6 promoter E-box probe],binds,binds
GCTGTGCACCAGTACTGGTCACACTAAAACTATCGAAAATTATCGCACGTATCGCATCT (double strand) [CycB promoter E-box probe],binds,binds

# Construct, isoform or probe ends are uncertain for at least one entry. Where cells or extracts were used, other partners may take part. Where a protein sequence is shown, tags need not be part of it.
